According to patent US9822136B2, “Chemical inhibitors of sebocyte function” (priority 2016, dated 2017):

Experiment: Skin temperature of human forehead after topical application
Type: in vivo
Details: for Skin temperature of human forehead: 1-7 20 mg/mL

CCCCCCCP(=O)(C(C)C)C(C)C [Code 1-7, 1-diisopropylphosphorylheptane]
Skin temperature of human forehead (0 min): 37.4 °C | Skin temperature of human forehead (15 min): 37.5 °C | Skin temperature of human forehead (30 min): 37.1 °C | Skin temperature of human forehead (45 min): 37.2 °C | Skin temperature of human forehead (60 min): 37.1 °C | Skin temperature of human forehead (Before): 37.4 °C | Effect on skin temperature (forehead, 20 mg/mL): not affected
